Drawing on publication PMC8187409, “The zinc-finger protein Red1 orchestrates MTREC submodules and binds the Mtl1 helicase arch domain” (Nature Communications, 2021), this text covers binding for 1 molecule.

Results are given in words; binding and its absence hold for the method and conditions named. Some results given as binding are weak or reduced against the parent protein; the word gives no strength.

Holding throughout (experiment): two-hybrid; Gal4 BD and AD fusions (pGBKT7/pGADT7 or pG4BDN22/pG4ADHAN111) co-transformed into PJ69-4A; growth after 3 days at 30 °C on SDC-His (weak), SDC-His + 1 mM 3-AT (medium), SDC-Ade (strong)
Assay [1] addresses T1, Red1 (E32A, D33A, E35A) (S. pombe) (UniProt Q9UTR8).
T1 sequence: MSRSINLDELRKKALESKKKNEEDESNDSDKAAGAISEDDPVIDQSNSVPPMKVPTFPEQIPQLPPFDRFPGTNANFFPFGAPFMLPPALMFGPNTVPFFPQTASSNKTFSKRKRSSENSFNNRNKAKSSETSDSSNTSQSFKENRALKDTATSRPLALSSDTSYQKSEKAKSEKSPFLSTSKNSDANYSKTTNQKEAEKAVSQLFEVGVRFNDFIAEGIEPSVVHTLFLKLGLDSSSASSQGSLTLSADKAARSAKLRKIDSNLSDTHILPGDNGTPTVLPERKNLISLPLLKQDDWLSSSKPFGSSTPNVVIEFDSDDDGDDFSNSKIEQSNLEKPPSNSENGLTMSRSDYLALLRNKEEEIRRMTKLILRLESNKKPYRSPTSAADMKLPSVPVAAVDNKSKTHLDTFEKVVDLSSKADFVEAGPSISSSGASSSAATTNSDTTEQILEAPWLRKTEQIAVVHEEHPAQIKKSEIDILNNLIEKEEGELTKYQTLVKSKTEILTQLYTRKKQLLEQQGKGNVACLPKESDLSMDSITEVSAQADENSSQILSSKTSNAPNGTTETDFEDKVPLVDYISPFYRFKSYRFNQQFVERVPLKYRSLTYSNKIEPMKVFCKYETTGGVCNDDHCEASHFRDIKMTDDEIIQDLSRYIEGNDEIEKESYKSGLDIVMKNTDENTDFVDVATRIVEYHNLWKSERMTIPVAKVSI

The target of assay [2] is T2, full-length spRed1 (D33A, E35A) (S. pombe) (UniProt Q9UTR8).
T2 sequence: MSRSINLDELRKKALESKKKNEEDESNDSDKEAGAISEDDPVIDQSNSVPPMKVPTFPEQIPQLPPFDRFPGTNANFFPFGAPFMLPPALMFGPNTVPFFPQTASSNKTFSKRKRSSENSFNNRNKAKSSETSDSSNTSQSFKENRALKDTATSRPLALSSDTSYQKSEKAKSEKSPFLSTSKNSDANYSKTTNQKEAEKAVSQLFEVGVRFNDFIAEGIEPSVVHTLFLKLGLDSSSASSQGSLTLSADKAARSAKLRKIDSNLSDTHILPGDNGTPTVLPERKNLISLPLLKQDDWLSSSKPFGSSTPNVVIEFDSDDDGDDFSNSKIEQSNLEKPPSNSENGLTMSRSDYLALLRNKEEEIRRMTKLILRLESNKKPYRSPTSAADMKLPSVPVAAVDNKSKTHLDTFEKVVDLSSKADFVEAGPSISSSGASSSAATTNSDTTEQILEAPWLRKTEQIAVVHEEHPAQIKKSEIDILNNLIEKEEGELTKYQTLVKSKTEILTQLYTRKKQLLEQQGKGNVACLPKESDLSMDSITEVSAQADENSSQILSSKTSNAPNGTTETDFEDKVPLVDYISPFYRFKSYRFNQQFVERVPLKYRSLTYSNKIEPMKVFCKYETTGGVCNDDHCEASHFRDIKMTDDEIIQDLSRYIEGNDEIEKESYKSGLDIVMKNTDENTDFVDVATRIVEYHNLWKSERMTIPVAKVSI

The target of assay [3] is T3, Red1 (spRed1), full length (S. pombe) (UniProt Q9UTR8).
T3 sequence: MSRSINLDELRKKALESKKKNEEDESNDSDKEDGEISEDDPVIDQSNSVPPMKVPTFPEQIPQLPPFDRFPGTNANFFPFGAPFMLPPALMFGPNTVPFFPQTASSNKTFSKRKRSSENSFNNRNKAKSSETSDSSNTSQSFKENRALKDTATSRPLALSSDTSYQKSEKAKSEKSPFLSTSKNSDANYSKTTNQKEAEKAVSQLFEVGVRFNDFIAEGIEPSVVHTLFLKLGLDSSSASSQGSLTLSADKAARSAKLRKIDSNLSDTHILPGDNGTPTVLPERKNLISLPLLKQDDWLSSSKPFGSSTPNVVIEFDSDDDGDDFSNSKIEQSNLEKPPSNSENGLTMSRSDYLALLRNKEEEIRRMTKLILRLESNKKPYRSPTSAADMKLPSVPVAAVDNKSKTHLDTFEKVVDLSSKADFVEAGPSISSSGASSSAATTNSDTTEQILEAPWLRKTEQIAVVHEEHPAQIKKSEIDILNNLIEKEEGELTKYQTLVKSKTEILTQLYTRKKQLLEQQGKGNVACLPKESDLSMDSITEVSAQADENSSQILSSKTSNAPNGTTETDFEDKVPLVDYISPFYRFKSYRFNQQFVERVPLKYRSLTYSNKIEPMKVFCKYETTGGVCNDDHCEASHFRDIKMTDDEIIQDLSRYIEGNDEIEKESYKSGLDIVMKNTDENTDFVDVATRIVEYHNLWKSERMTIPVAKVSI

B1: Ars2 (spArs2), full length (protein, UniProt O94326 1-609)
chain: MSEVHQESEVEYSRWKRERSPERSQRRSQSPPGEQSAYHRERSPLRKRGNYYDDRTRASGPYPTFTKPLIDPYTQTNAVSYERFIRWYSKENHISATTEDLYNSLHGTYNNYKQDLYARTARSFVESHCDEAWFEDSYWVDESQGRVLEVSENEKSYRRALYDKFMDRLDAGYYDDFQLPTAEDVIEKPSIPDNDTDDSILPSNDPQLSKWNQDSRNDAMENTLLVSHVLPNISVAQIHNALDGISFVQHFSLSTINLIKNDERSLWVHFKAGTNMDGAKEAVDGIQLDSNFTIESENPKIPTHTHPIPIFEIASSEQTCKNLLEKLIRFIDRASTKYSLPNDAAQRIEDRLKTHASMKDDDDKPTNFHDIRLSDLYAEYLRQVATFDFWTSKEYESLIALLQDSPAGYSRKKFNPSKEVGQEENIWLSDLENNFACLLEPENVDIKAKGALPVEDFINNELDSVIMKEDEQKYRCHVGTCAKLFLGPEFVRKHINKKHKDWLDHIKKVAICLYGYVLDPCRAMDPKVVSTSYVSLQILNKPYVGFRNINANYTFPTTSYSRRNDEEITSGASSQKSYSRQEPMIHRREFYRTYQDLDAPNQEVPELDY
For B1, the binding result in assay [1] is listed as “no binding”; in assay [2] it was “binds weakly”; in assay [3], “binds”.
